We go through four sequences from publication PMC6955894.

For some of these results: A negative result means that nothing was seen under these conditions. For some of these results: Construct, isoform or probe ends are uncertain for at least one entry. For some of these results: A weaker result is weaker than the reference pair of the same experiment.

One data set deals with lysozyme. Briefly: MST. The settings on record: slight signal at high lysozyme only, unspecific, TBSET: 10 mM Tris, 100 mM NaCl, 50 mM KCl, 0.05 mM EDTA, 0.05% Tween 20, pH 7, MST with 25 nM aptamer, 20 min at 20 C, read at room temperature, commercial protein.
Another data set concerns alpha-chymotrypsin. Briefly: MST. The settings on record: hardly any binding, under 5 units, marginal above 3.75 uM, TBSET: 10 mM Tris, 100 mM NaCl, 50 mM KCl, 0.05 mM EDTA, 0.05% Tween 20, pH 7, MST with 25 nM aptamer, 20 min at 20 C, read at room temperature, commercial protein.
For a further data set, the system named is VEGF-A165 (human). Briefly: microarray TID (competition). The settings on record: 1 uM VEGF, 100 pM cV7t1-Cy5: no effect; 3' NH2 on strand 1, immobilized on aldehyde slide; TBSET: 10 mM Tris, 100 mM NaCl, 50 mM KCl, 0.05 mM EDTA, 0.05% Tween 20, pH 7; recombinant protein; label: 3' Cy5 on strand 2.
Where [1] appears, read: label: 5' FITC, folded or branched DNA.
[2] abbreviates: label: 3' Cy5, folded or branched DNA.
[3] abbreviates: label: 3' Cy5, single-stranded DNA.

Turning to “TGTGGGGGTGGACGGGCCGGGTAGATAGTATGTGCATTC [V7t1-FITC]”, the binding result with lysozyme (setting [1]) and with alpha-chymotrypsin (setting [1]) was “binds more weakly” each time.

For the sequence “TGTGGGGGTGGACGGGCCGGGTAGATAGTATGTGCAATC [V7t1-Cy5]”, the binding result in the data set with lysozyme (setting [2]) and in the data set on alpha-chymotrypsin (setting [2]) was “binds more weakly” in each case. In the case of “TGTGGGGGTGGACGGGCCGGGTAGATAGTATGTGCATTC / CCGTCCACCCCC [V7t1-NH2/cV7t1-Cy5]”, the binding result with VEGF-A165 (human) was “no binding”. For “ATACCAGTCTATTCAATTGGGCCCGTCCGTATGGTGGGTGTGCTGGCCAG [Del5-1-Cy5]”, the binding result in the data set on lysozyme (setting [3]) and with alpha-chymotrypsin (setting [3]) was “binds more weakly” in each case.
